Values from PubChem BioAssay AID743454 (Peter MacCallum Cancer Centre, 2014).

Test: 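Knock-downs lowering viability or raising caspase 3/7 activity in vorinostat-treated resistant cells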 (primary screen)
Cells: human HCT116-VR colon cancer cells, selected for vorinostat resistance
Reagent: siRNA pool against human genes, 40 nM siRNA pool
Timing: vorinostat for 24 h, read-out about 72 h after transfection
Treatment: vorinostat at 2.5 µM final
Measured: 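Two measures, CellTiter-Fluor viability and luminescent caspase 3/7 activity, each as fold change against same-plate mock wells, mean of duplicates, then screen-wide robust z-score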
Scale: viability robust z-score: higher = more viable cells than screen typical; caspase robust z-score: higher = more caspase 3/7 activity than screen typical
Hit rule: 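a knock-down is a hit when classed RV1 or RV2 for lowered viability, or CA1 or CA2 for caspase activation; those lethal without drug were dropped; hits were retested singly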
Here is an unselected part of about 18,000 deposited reagents. 450 of all reagents (2.5%) were called active. 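Single biological run; no consistent viability z cut-off exists, so the class columns, not z-scores, define the calls.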 No sequences are given here.

| gene | viability hit class | caspase hit class | viability robust z-score | caspase robust z-score | outcome |
| --- | --- | --- | --- | --- | --- |
| SH3BP2 | no change | no change | 0.88 | 0.64 | inactive |
| MMD2 | no change | no change | 0.68 | -0.95 | inactive |
| KIR2DL5B | no change | no change | -1.17 | -0.21 | inactive |
| ANKS6 | no change | no change | -0.38 | 0.86 | inactive |
| NPTXR | no change | no change | -0.86 | 0.98 | inactive |
| VWC2L | no change | no change | -0.73 | 2.01 | inactive |
| CENPB | no change | no change | 1.15 | 1.39 | inactive |
| WDR31 | no change | no change | -0.48 | -0.78 | inactive |
| LCN1 | no change | no change | -0.36 | -0.43 | inactive |
| HAVCR2 | no change | no change | -0.7 | 0.57 | inactive |
| TNFRSF25 | no change | no change | -0.46 | -0.3 | inactive |
| ZNG1C | no change | no change | 1.38 | -0.26 | inactive |
| MTFMT | no change | no change | -1.32 | 4.42 | inactive |
| C1orf115 | no change | no change | -0.65 | -0.36 | inactive |
| LZTS1 | no change | no change | -1.83 | 1.85 | inactive |
| IL31RA | no change | no change | 0.51 | -0.02 | inactive |
| ANOS1 | no change | no change | 1.06 | 0.54 | inactive |
| BPHL | no change | no change | 0.82 | -0.66 | inactive |
| DECR2 | no change | no change | 0.8 | 1.21 | inactive |
| PGAP3 | no change | no change | 1.16 | 1.55 | inactive |
| PLSCR1 | no change | no change | -0.64 | 4.78 | inactive |
| H3C15 | no change | no change | -1.34 | 0.97 | inactive |
| SDK2 | no change | no change | 0.76 | 0.16 | inactive |

Sorted by “viability robust z-score” (highest first): some entries from above
| gene | viability hit class | caspase hit class | viability robust z-score | caspase robust z-score | outcome |
| --- | --- | --- | --- | --- | --- |
| C1orf115 | no change | no change | -0.65 | -0.36 | inactive |
| MTFMT | no change | no change | -1.32 | 4.42 | inactive |
| LZTS1 | no change | no change | -1.83 | 1.85 | inactive |
